Construct, isoform or probe ends are uncertain for at least one entry. The comparison behind a weaker result is the experiment's own reference, which may not be listed here.
Target: MBP-EIN3N (UniProt O24606)
Experiment: EMSA
Conditions: + GST-FHY3 (aa 186-839), 4 or 8 ug; LightShift Chemiluminescent EMSA kit (Pierce), 10 min at room temperature, 6% native polyacrylamide gel; salt and pH not stated; recombinant protein; residues 141-352; protein details: MBP; label: biotin

Chains of the proteins cited; added tags and fusions are not shown. Residues count along the entry.
UniProt O24606, 141-352: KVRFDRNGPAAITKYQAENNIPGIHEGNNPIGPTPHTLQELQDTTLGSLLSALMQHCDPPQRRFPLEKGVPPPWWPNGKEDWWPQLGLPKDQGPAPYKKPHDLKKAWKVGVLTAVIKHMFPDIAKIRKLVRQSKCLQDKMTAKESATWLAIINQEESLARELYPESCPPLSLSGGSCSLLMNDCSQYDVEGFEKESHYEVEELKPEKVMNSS

“ATACTTTACAAGGTTCATGCATGCATAC (double strand) [ORE1 EBS]”: binds more weakly.
